What was measured:
Format in all cases: cell-based, human
[1] = system: U-251; assay: FBP in culture medium; conditions: U-251, 1.6 mM added
[2] = system: U87-MG; assay: Intracellular glycolytic intermediates (LC-MS/MS) and FBP in culture medium; conditions: 1.6 mM added
Method: (§1) Rat glioma cell strains (C6), human glioma cell strains (U87-MG, U-251, SHG-44) and patient-derived glioma cells (tumor 1, tumor 3) were incubated in a culture medium containing 1.6 mM of trisodium fructose-1,6-bisphosphate, and after 36 h, levels of glycolytic intermediates including glucose-6-phosphate G6P, fructose-1,6-bisphosphate FBP, glyceraldehyde 3-phosphate (GAP), dihydroxyacetone phosphate (DHAP), and […] 3-phosphoglyceric acid PGA in respective cells were measured by using LC-MS/MS; and additionally, the levels of fructose-1,6-bisphosphate in each glioma cell strain at 12 h and 36 h were measured.

[3] = system: patient-derived glioma cells Tumor 3; assay: as above; conditions: Tumor 3, 1.6 mM added
Method: as §1

[4] = system: patient-derived glioma cells Tumor 1; assay: as above; conditions: Tumor 1, 1.6 mM added
Method: as §1

[5] = system: SHG-44; assay: as above; conditions: SHG-44, 1.6 mM added
Method: as §1

O=C(COP(=O)(O)O)[C@@H](O)[C@H](O)[C@H](O)COP(=O)(O)O [FBP, fructose-1,6-bisphosphate]
Levels of FBP in the culture medium ([1]; 12 h): 1.35 mg/mL
Levels of FBP in the culture medium ([1]; 36 h): 1.25 mg/mL
Levels of FBP in the culture medium ([2]; 12 h): 0.76 mg/mL
Levels of FBP in the culture medium ([2]; 36 h): 0.71 mg/mL
Levels of FBP in the culture medium ([3]; 12 h): 0.68 mg/mL
Levels of FBP in the culture medium ([3]; 36 h): 0.61 mg/mL
Levels of FBP in the culture medium ([4]; 12 h): 0.17 mg/mL
Levels of FBP in the culture medium ([4]; 36 h): 0.18 mg/mL
Levels of FBP in the culture medium ([5]; 12 h): 1.07 mg/mL
Levels of FBP in the culture medium ([5]; 36 h): 0.72 mg/mL
